Assay: in vitro
Settings: rat, plasma, pH 7.4, Unbound fraction in plasma, fu,plasma
Experimental: Equilibrium dialysis was employed to determine the fraction of unbound drug in plasma (fu,plasma), homogenates of whole-brain (fu,brain) and the CNS regions of interest (fu,ROI) including the frontal cortex, parietal cortex, cerebellum, striatum, hippocampus, and spinal cord. […] Briefly, a Teflon 96-well plate (model HTD96b, HTDialysis LLC, Gales Ferry, CT, USA) with a cellulose membrane with a 12–14 kDa molecular weight cutoff was used. The cellulose membrane was treated according to the recommendations from the manufacturer before starting the experiment (HTDialysis LLC, Gales Ferry, CT, USA). Fresh plasma (n=3 rats per drug) was obtained on the day of the experiment and the pH of the plasma was adjusted to 7.40 using H3PO4. […] Whole brain and CNS regions of interest (n = 3–4 rats per drug) were homogenized in 1:9 (w:v) PBS pH 7.40. Diluted brain samples were individually spiked to a final concentration of 1,000 nM. […] Drug recovery and thermostability in plasma and brain were analyzed in each experiment by sampling spiked samples before and after the 6-h incubation. […] The fraction of unbound drug in plasma was assessed as a ratio between buffer and plasma concentrations. The unbound fraction of drug in the diluted (D) CNS tissue homogenate (fu,hD) was calculated as: […]

CN(C)CCOC(c1ccccc1)c1ccccc1 [Diphenhydramine, diphenhydramine]
fraction unbound at 6 h: 0.389 ± 0.053
